# Data from the supplement of paper PMC10849652.
# Chains of the proteins cited; added tags and fusions are not shown. Lines headed by an entry give the natural chain unless they say otherwise; changes in a name come on top.
# UniProt Q99829: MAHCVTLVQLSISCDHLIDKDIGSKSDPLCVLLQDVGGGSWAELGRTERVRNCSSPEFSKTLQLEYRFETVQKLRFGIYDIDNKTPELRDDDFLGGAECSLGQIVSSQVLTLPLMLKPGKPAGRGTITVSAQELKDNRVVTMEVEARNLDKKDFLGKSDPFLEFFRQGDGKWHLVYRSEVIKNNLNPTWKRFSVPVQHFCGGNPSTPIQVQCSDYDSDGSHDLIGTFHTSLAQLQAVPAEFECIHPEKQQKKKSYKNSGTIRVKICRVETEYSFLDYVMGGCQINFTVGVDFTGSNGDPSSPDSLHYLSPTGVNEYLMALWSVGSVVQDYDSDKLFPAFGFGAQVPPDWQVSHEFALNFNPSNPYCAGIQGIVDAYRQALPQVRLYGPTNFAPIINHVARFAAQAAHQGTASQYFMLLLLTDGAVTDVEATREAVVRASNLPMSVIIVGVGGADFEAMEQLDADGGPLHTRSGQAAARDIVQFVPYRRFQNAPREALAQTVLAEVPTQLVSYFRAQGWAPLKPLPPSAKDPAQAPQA
# UniProt P20674, whole entry, looked up: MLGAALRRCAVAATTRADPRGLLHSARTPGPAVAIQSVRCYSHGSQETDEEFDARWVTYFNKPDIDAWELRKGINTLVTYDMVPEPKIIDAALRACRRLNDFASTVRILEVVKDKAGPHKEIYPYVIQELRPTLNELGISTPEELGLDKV
# UniProt Q86WW8: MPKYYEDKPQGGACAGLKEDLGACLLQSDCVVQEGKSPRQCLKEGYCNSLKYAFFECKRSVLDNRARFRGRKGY
# UniProt Q9BT09: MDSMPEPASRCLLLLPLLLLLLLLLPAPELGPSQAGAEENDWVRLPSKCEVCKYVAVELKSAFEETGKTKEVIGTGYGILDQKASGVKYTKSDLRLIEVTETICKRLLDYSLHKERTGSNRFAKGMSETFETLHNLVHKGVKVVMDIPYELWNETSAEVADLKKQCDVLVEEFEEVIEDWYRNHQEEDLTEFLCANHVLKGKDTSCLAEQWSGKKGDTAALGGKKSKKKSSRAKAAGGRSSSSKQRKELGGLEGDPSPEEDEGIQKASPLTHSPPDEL
# UniProt Q8N129: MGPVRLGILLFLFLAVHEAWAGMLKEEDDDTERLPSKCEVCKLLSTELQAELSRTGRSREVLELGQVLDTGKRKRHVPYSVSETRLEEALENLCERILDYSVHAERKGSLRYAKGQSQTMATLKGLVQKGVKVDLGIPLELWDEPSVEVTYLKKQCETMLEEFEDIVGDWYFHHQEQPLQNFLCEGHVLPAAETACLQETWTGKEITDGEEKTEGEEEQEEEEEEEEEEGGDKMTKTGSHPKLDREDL
# UniProt Q8N668, whole entry, looked up: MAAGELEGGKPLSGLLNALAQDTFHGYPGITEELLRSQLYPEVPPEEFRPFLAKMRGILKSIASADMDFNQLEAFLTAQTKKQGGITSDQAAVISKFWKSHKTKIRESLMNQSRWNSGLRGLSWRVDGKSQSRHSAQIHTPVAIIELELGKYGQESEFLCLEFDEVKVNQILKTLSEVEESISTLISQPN
# UniProt Q8N8Q8: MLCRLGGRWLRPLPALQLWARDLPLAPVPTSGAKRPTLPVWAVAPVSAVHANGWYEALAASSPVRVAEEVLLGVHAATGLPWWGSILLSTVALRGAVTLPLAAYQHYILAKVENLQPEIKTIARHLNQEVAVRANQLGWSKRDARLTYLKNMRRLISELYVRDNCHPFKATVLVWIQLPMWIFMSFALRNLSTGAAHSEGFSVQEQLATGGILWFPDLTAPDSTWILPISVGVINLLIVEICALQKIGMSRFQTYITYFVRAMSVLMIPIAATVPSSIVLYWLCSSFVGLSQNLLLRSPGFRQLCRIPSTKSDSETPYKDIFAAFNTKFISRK
# UniProt P38432, whole entry, looked up: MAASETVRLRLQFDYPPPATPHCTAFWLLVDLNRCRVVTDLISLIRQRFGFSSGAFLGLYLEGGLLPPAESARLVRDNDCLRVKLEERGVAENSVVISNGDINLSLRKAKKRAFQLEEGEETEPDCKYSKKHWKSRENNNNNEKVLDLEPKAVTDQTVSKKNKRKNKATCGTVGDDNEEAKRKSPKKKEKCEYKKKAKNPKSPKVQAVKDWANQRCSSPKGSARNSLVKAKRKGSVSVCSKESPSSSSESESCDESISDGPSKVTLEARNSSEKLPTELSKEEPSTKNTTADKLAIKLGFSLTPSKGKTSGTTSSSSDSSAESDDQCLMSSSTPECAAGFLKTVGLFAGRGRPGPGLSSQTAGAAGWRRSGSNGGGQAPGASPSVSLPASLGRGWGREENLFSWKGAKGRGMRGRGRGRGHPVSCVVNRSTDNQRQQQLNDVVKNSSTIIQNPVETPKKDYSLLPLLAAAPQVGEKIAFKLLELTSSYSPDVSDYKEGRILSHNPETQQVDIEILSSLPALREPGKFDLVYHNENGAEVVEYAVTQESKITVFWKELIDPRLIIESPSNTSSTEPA
# UniProt P23786: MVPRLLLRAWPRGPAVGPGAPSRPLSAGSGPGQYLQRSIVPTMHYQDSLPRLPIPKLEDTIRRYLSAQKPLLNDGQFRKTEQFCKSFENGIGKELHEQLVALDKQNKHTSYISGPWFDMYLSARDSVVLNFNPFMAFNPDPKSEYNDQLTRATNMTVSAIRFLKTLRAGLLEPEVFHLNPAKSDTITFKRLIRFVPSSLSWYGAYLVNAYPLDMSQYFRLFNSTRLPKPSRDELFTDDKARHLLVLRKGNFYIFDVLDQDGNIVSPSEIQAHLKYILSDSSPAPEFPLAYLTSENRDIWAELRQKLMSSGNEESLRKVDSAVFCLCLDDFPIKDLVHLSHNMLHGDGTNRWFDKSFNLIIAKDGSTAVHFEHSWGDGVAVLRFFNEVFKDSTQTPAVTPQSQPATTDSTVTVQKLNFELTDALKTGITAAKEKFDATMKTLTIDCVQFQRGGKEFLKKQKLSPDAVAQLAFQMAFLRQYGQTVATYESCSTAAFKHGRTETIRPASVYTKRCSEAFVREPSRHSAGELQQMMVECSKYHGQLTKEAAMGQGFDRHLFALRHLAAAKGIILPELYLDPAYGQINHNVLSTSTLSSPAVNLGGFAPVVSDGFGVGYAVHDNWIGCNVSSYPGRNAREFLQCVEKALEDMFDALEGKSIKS
# UniProt Q9UBW8: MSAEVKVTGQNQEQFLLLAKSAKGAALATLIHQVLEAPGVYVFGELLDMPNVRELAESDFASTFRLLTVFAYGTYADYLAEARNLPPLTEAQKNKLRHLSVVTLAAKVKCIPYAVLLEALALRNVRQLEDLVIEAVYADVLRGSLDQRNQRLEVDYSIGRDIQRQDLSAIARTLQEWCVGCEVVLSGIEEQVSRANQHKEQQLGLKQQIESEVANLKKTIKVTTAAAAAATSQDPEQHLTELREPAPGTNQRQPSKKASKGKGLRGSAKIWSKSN
# UniProt Q9BSW2: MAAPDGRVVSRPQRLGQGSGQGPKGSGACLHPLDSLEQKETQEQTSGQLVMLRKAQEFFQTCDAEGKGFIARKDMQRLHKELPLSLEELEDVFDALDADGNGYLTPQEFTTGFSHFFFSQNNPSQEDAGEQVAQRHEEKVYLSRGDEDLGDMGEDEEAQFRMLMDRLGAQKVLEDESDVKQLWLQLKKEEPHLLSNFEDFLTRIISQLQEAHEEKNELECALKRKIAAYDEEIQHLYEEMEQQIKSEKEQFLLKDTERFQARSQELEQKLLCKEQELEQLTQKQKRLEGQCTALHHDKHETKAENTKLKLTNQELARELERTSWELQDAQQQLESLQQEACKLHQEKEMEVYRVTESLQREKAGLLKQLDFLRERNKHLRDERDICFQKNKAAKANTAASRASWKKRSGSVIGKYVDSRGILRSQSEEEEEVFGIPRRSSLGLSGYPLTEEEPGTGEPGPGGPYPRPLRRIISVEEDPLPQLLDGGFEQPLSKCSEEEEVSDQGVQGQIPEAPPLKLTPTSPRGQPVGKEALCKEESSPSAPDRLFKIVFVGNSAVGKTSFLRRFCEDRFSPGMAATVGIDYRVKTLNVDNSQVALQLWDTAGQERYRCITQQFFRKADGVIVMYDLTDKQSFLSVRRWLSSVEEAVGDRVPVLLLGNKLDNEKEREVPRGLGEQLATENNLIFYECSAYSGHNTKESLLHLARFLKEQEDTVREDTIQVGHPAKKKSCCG
# UniProt P13073, whole entry, looked up: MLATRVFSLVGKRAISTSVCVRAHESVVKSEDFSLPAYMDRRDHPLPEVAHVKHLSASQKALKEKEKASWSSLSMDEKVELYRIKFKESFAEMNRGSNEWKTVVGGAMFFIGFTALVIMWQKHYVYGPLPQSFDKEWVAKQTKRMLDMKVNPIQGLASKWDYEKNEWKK
# UniProt P15954, whole entry, looked up: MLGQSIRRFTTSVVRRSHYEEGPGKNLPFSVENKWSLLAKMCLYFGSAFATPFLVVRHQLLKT
# UniProt P57737: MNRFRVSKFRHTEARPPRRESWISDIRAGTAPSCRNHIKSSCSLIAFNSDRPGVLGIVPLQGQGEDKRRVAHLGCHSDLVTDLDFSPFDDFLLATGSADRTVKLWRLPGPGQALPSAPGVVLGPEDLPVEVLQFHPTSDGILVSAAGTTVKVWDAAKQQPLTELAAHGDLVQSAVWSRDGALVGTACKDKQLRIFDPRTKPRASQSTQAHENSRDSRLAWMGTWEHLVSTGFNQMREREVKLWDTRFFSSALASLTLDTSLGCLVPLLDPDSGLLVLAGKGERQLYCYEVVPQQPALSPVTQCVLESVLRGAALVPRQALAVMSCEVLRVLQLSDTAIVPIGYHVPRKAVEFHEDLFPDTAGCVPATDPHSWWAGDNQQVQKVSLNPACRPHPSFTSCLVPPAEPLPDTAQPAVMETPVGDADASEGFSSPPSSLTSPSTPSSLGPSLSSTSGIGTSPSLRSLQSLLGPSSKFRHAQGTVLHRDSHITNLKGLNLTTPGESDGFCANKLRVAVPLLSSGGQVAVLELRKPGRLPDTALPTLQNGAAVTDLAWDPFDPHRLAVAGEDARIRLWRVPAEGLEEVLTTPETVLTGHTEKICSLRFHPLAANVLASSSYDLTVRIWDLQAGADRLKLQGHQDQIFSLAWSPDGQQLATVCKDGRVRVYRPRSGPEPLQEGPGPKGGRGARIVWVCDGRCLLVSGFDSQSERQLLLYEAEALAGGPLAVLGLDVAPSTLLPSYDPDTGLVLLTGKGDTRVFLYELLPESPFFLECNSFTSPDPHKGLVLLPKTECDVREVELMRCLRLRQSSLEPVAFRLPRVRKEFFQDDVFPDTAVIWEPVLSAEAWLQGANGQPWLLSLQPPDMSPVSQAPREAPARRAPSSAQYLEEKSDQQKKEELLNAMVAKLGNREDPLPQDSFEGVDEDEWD
# UniProt P10606, whole entry, looked up: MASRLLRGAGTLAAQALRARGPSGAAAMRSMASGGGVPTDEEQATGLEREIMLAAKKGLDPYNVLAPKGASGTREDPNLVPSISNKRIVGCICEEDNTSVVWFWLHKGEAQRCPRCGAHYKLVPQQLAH
# UniProt Q7KZN9: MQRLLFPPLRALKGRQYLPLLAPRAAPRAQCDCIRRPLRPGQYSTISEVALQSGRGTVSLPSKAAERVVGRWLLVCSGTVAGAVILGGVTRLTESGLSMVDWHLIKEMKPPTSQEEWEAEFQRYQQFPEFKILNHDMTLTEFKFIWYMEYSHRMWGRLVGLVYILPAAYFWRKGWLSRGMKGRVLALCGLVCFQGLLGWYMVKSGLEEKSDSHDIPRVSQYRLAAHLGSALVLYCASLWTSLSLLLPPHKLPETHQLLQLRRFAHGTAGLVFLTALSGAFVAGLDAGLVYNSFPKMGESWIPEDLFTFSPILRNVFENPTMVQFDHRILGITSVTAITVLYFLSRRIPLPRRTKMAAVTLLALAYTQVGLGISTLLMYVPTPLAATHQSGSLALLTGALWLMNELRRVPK
# UniProt Q9UNS2: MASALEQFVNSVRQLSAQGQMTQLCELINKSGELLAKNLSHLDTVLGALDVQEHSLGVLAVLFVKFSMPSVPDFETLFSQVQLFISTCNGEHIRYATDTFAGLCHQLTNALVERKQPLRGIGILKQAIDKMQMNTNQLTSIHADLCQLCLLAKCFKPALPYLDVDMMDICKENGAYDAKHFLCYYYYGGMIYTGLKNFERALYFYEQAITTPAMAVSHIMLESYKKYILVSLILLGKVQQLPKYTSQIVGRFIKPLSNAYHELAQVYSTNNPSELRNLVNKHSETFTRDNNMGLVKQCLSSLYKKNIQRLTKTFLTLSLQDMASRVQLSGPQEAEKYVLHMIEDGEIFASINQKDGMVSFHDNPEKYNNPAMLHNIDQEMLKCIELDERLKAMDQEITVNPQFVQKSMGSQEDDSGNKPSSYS
# UniProt Q9UIV1, whole entry, looked up: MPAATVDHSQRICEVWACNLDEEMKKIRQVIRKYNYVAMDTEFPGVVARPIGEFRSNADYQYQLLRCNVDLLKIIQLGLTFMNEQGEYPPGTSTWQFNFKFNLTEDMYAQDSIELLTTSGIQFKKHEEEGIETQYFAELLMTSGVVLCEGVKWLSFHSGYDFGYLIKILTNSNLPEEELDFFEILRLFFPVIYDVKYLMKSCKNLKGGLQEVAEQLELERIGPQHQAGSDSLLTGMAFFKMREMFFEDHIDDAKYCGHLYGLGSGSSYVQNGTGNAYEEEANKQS
# UniProt Q14019: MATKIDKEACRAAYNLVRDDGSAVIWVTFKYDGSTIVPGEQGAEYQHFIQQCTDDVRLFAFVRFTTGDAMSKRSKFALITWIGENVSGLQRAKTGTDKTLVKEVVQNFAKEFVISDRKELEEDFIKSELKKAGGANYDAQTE
# The other results are listed elsewhere or left out.
# Compound: O=C(CCCCCCC(=O)Nc1ccccc1)NO [vorinostat]
# Test: log2 fold change, soluble protein after heating vs DMSO (PISA); higher = thermal stabilisation; K562 lysate, 10 uM; active = over 0.2 and 3.5 SD of the protein, either way, in both replicates (recomputed)
# In short: (§1)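 Values give the log-two fold change in thermal stability against solvent controls, from duplicates. Crude K562 extract at 1 mg/mL protein, made by dounce homogenisation in PBS pH 7.4 with 1 mM MgCl2, was treated with 10 μM compound for 30 min. After 3 min heating across 48°C-58°C, aliquots were pooled, adjusted to 0.5% NP-40 at 4°C and centrifuged at 21,000xg for 90 min. The supernatant was measured by TMTpro 16plex LC-MS/MS with channel sums equalised.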
row,Target,log2 fold change
1,COG1 (UniProt Q8WTW3),inactive: -0.213
2,CPNE1 (UniProt Q99829),inactive: -0.019
3,COX5A (UniProt P20674),inactive: 0.29
4,COA5 (UniProt Q86WW8),inactive: -0.015
5,CNPY3 (UniProt Q9BT09),inactive: 0.035
6,CNPY4 (UniProt Q8N129),inactive: 0.089
7,COL18A1 (UniProt P39060),inactive: 0.134
8,CPQ (UniProt Q9Y646),inactive: 0.127
9,COMMD1 (UniProt Q8N668),inactive: -0.052
10,COL15A1 (UniProt P39059),inactive: 0.051
11,COX18 (UniProt Q8N8Q8),inactive: 0.079
12,COIL (UniProt P38432),inactive: -0.182
13,CPT2 (UniProt P23786),inactive: -0.039
14,COQ5 (UniProt Q5HYK3),inactive: -0.05
15,COPS7B isoform 3 (UniProt Q9H9Q2),inactive: 0.065
16,CNOT3 (UniProt O75175),inactive: -0.088
17,CNNM2 (UniProt Q9H8M5),inactive: 0.068
18,COPS5 (UniProt Q92905),inactive: 0.081
19,COPS7A (UniProt Q9UBW8),inactive: 0.041
20,COG3 (UniProt Q96JB2),active: -0.314

row,Target,log2 fold change
1,CRACR2A isoform 2 (UniProt Q9BSW2),inactive: -0.086
2,COX4I1 (UniProt P13073),inactive: 0.17
3,COX7C (UniProt P15954),inactive: 0.045
4,CNOT4 isoform 6 (UniProt O95628),inactive: 0.046
5,CORO7 (UniProt P57737),inactive: -0.019
6,COLGALT2 (UniProt Q8IYK4),inactive: 0.015
7,COPS4 (UniProt Q9BT78),inactive: 0.072
8,COX5B (UniProt P10606),inactive: 0.28
9,COX15 (UniProt Q7KZN9),inactive: 0.118
10,COPS3 (UniProt Q9UNS2),inactive: 0.053
11,CORO7 isoform 3 (UniProt P57737),inactive: -0.176
12,COA4 isoform 2 (UniProt Q9NYJ1),inactive: 0.186
13,COMMD2 (UniProt Q86X83),inactive: -0.026
14,CNOT11 (UniProt Q9UKZ1),inactive: -0.178
15,CNOT7 (UniProt Q9UIV1),inactive: -0.17
16,CNOT9 (UniProt Q92600),inactive: -0.113
17,CORO1B (UniProt Q9BR76),inactive: -0.142
18,COQ9 (UniProt O75208),inactive: 0.084
19,COTL1 (UniProt Q14019),inactive: 0.147

# Compound: O=C(O)c1ccc2c(c1)nc(Nc1cccc(Cl)c1)c1ccncc12 [silmitasertib]
# Test: as above
# In short: as §1
row,Target,log2 fold change
1,COG1 (UniProt Q8WTW3),inactive: 0.008
2,CPNE1 (UniProt Q99829),inactive: 0.011
3,COX5A (UniProt P20674),inactive: -0.041
4,COA5 (UniProt Q86WW8),inactive: -0.065
5,CNPY3 (UniProt Q9BT09),inactive: 0.045
6,CNPY4 (UniProt Q8N129),inactive: 0.048
7,COL18A1 (UniProt P39060),inactive: 0.015
8,CPQ (UniProt Q9Y646),inactive: 0.019
9,COMMD1 (UniProt Q8N668),inactive: 0.019
10,COL15A1 (UniProt P39059),inactive: -0.082
11,COX18 (UniProt Q8N8Q8),inactive: -0.006
12,COIL (UniProt P38432),inactive: -0.035
13,CPT2 (UniProt P23786),inactive: 0.048
14,COQ5 (UniProt Q5HYK3),inactive: 0.02
15,COPS7B isoform 3 (UniProt Q9H9Q2),inactive: -0.003
16,CNOT3 (UniProt O75175),inactive: -0.009
17,CNNM2 (UniProt Q9H8M5),inactive: 0.065
18,COPS5 (UniProt Q92905),inactive: 0.015
19,COPS7A (UniProt Q9UBW8),inactive: 0.01
20,COG3 (UniProt Q96JB2),inactive: 0.123

row,Target,log2 fold change
1,CRACR2A isoform 2 (UniProt Q9BSW2),inactive: 0.019
2,COX4I1 (UniProt P13073),inactive: -0.023
3,COX7C (UniProt P15954),inactive: 0.138
4,CNOT4 isoform 6 (UniProt O95628),inactive: -0.032
5,CORO7 (UniProt P57737),inactive: -0.017
6,COLGALT2 (UniProt Q8IYK4),inactive: 0.01
7,COPS4 (UniProt Q9BT78),inactive: 0.012
8,COX5B (UniProt P10606),inactive: -0.064
9,COX15 (UniProt Q7KZN9),inactive: 0.016
10,COPS3 (UniProt Q9UNS2),inactive: -0.041
11,CORO7 isoform 3 (UniProt P57737),inactive: 0.042
12,COA4 isoform 2 (UniProt Q9NYJ1),inactive: -0.118
13,COMMD2 (UniProt Q86X83),inactive: -0.005
14,CNOT11 (UniProt Q9UKZ1),inactive: 0.027
15,CNOT7 (UniProt Q9UIV1),inactive: -0.019
16,CNOT9 (UniProt Q92600),inactive: 0
17,CORO1B (UniProt Q9BR76),inactive: 0.013
18,COQ9 (UniProt O75208),inactive: 0.002
19,COTL1 (UniProt Q14019),inactive: 0
